# PubChem BioAssay AID445 (National Center for Advancing Translational Sciences (NCATS), 2006)
# The other results are listed elsewhere or left out. The main result of the screen is listed elsewhere. These columns were measured beside it and carry no call. Most of these compounds were active or inconclusive in the main read-out, so they are no random draw. The note in brackets gives the kind of curve behind each potency; many fits are weak.
# Assay: IkB Signaling
# Settings: ABC-DLBCL IkBa-CBG/CBR dual luciferase ratio (green luciferase fused to IkBa over red control in OCI-Ly3 lymphoma cells), 4 h
# Procedure, shortened: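 In this assay, an IκBα–CBG68 fusion accumulates when IKK-driven degradation is blocked; native CBR normalizes for cell number. OCI-Ly3 cells were treated 4 h with compound and doxycycline, then green and red light read after Chroma-Glo addition.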
# [1] = measured here: control luc red channel unless noted
structure (smiles),measurement,setting,value
Cn1c(C(=O)NCc2cccc(Cl)c2)cc2oc3ccccc3c21,AC50,[1],"7.94 µM [falling, partial curve]"
CC(=O)c1ccc(N2CCN(C(=O)CCCn3c(=O)[nH]c4ccsc4c3=O)CC2)cc1,AC50,[1],"0.01 µM [falling, full curve, poor fit]"
CCC(=C(CC)c1ccc(O)cc1)c1ccc(O)cc1,AC50,[1],"15.8 µM [rising, single point] [measured here: IkB-luc green channel]"
COc1ccc(C(CC(=O)Nc2ccc(Br)cn2)N2Cc3ccccc3C2=O)cc1 (stereo unspecified),AC50,[1],"31.6 µM [falling, single point]"
COc1ccccc1CCNC(=O)C1CCN(c2nnc(C)c3c(C)n(-c4ccc(C)cc4)nc23)CC1,AC50,[1],"12.6 µM [falling, partial curve]"
CCOc1ccccc1NC(=O)N1CCC(c2nc3ccccc3[nH]2)CC1,AC50,[1],"25.1 µM [falling, partial curve]"
Cc1ccc(Cn2c(CN3CCN(c4cccc(Cl)c4)CC3)nc3c2c(=O)n(C)c(=O)n3C)cc1,AC50,[1],"20 µM [falling, partial curve]"
Cc1cc2cc(CNC(=O)c3ccc4c(c3)OCO4)ccc2[nH]1,AC50,[1],"12.6 µM [falling, partial curve]"
O=C(Nc1nc(-c2ccc(S(=O)(=O)N3CCCC3)cc2)cs1)c1cccs1,AC50,[1],"2.51 µM [falling, full curve]"
CC(C)c1cc(-c2nc(-c3cccc(Cl)c3)no2)n[nH]1,AC50,[1],"20 µM [falling, partial curve]"
COc1ccc(NC(=O)CSc2nnc(COc3ccccc3)n2Cc2ccco2)cc1OC,AC50,[1],"10 µM [falling, partial curve]"
CCOc1ccc(CNC(=O)CSc2c3c(nc4ccc(Cl)cc24)CCCC3)cc1,AC50,[1],"3.16 µM [falling, full curve, poor fit]"
COc1ccc(C)c2sc(N3CCN(C(=O)c4ccco4)CC3)nc12,AC50,[1],"3.98 µM [rising, partial curve]"
CCCOc1cccc(C(=O)Nc2cccc(NC(=O)c3ccc(Cl)cc3Cl)c2)c1,AC50,[1],"3.16 µM [falling, full curve]"
CCCCNc1cc(NC(C)=O)cc2cc(OC)c(OC)cc12,AC50,[1],"31.6 µM [falling, single point]"
O=C(Cn1cc(C(=O)c2cccs2)c2ccccc21)Nc1ccc(Br)cc1,AC50,[1],"7.94 µM [falling, full curve]"
CCN1C(=O)c2ccccc2S(=O)c2ccc(C(=O)NCc3ccc(Cl)cc3)cc21 (stereo unspecified),AC50,[1],"12.6 µM [falling, partial curve]"
CCN(c1cccc(C)c1)S(=O)(=O)c1c(C)nc2sc(C)cn2c1=O,AC50,[1],"31.6 µM [falling, single point]"
COc1cccc(C(c2sc3nc(-c4ccco4)nn3c2O)N2CCN(C)CC2)c1 (stereo unspecified),AC50,[1],"39.8 µM [rising, single point]"
COc1ccc(Cl)cc1NC(=O)CSc1nnc(Cc2cccn2C)n1-c1ccc(F)cc1,AC50,[1],"15.8 µM [falling, partial curve]"
CN=c1nc(-c2ccccc2)n(-c2ccccc2)s1,AC50,measured here: IkB-luc green channel,"25.1 µM [falling, single point]"
same,AC50,measured here: control luc red channel,"31.6 µM [falling, partial curve]"
Cc1ccc(OCC(=O)Nc2ccc(O)c(C(=O)O)c2)cc1C,AC50,[1],"12.6 µM [falling, partial curve]"
Cc1nn(-c2ccc(F)cc2)c2sc(C(=O)OCC(=O)N3CCC(C)CC3)cc12,AC50,[1],"0.501 µM [falling, full curve, poor fit]"
COc1ccc(-c2nc(C#N)c(NCCc3ccccc3)o2)cc1OC,AC50,[1],"39.8 µM [falling, single point]"
Cn1cccc1C(=O)OCC(=O)c1cc2ccccc2o1,AC50,[1],"5.01 µM [falling, full curve, poor fit]"
COc1ccccc1CNC(=O)C1CCN(c2nnc(C)c3c(C)n(-c4ccccc4)nc23)CC1,AC50,[1],"15.8 µM [falling, single point]"
CC(C)CC(=O)OCc1cc(=O)n2nc(C3CCCCC3)sc2n1,AC50,[1],"3.16 µM [falling, single point]"
Cc1ccc(NC(=O)CN2C(=O)CC(c3ccc(C)c(C)c3)=Nc3ccccc32)cc1,AC50,[1],"15.8 µM [falling, partial curve]"
O=C(c1cccc(C(=O)N2CCN(c3ccccc3)CC2)c1)N1CCN(c2ccccc2)CC1,AC50,[1],"15.8 µM [falling, partial curve]"
Cc1cc(C(=O)Nc2nc3c(s2)CCCC3)no1,AC50,[1],"12.6 µM [falling, partial curve]"

# A different layout for some results above:
structure (smiles)	measurement	setting	value
CCC(=C(CC)c1ccc(O)cc1)c1ccc(O)cc1	AC50	[1]	15.8 µM [rising, single point] [measured here: IkB-luc green channel]
CCN1C(=O)c2ccccc2S(=O)c2ccc(C(=O)NCc3ccc(Cl)cc3)cc21 (stereo unspecified)	AC50	[1]	12.6 µM [falling, partial curve]
